Assay results as given in the supplement of paper PMC12067093, “Discovery and optimisation of a covalent ligand for TRIM25 and its application to targeted protein ubiquitination” (Chemical Science, 2025).
The list shows a part of the results.

Chains of the proteins cited; added tags and fusions are not shown. Lines headed by an entry give the natural chain unless they say otherwise; changes in a name come on top.
UniProt Q14204, whole entry, looked up: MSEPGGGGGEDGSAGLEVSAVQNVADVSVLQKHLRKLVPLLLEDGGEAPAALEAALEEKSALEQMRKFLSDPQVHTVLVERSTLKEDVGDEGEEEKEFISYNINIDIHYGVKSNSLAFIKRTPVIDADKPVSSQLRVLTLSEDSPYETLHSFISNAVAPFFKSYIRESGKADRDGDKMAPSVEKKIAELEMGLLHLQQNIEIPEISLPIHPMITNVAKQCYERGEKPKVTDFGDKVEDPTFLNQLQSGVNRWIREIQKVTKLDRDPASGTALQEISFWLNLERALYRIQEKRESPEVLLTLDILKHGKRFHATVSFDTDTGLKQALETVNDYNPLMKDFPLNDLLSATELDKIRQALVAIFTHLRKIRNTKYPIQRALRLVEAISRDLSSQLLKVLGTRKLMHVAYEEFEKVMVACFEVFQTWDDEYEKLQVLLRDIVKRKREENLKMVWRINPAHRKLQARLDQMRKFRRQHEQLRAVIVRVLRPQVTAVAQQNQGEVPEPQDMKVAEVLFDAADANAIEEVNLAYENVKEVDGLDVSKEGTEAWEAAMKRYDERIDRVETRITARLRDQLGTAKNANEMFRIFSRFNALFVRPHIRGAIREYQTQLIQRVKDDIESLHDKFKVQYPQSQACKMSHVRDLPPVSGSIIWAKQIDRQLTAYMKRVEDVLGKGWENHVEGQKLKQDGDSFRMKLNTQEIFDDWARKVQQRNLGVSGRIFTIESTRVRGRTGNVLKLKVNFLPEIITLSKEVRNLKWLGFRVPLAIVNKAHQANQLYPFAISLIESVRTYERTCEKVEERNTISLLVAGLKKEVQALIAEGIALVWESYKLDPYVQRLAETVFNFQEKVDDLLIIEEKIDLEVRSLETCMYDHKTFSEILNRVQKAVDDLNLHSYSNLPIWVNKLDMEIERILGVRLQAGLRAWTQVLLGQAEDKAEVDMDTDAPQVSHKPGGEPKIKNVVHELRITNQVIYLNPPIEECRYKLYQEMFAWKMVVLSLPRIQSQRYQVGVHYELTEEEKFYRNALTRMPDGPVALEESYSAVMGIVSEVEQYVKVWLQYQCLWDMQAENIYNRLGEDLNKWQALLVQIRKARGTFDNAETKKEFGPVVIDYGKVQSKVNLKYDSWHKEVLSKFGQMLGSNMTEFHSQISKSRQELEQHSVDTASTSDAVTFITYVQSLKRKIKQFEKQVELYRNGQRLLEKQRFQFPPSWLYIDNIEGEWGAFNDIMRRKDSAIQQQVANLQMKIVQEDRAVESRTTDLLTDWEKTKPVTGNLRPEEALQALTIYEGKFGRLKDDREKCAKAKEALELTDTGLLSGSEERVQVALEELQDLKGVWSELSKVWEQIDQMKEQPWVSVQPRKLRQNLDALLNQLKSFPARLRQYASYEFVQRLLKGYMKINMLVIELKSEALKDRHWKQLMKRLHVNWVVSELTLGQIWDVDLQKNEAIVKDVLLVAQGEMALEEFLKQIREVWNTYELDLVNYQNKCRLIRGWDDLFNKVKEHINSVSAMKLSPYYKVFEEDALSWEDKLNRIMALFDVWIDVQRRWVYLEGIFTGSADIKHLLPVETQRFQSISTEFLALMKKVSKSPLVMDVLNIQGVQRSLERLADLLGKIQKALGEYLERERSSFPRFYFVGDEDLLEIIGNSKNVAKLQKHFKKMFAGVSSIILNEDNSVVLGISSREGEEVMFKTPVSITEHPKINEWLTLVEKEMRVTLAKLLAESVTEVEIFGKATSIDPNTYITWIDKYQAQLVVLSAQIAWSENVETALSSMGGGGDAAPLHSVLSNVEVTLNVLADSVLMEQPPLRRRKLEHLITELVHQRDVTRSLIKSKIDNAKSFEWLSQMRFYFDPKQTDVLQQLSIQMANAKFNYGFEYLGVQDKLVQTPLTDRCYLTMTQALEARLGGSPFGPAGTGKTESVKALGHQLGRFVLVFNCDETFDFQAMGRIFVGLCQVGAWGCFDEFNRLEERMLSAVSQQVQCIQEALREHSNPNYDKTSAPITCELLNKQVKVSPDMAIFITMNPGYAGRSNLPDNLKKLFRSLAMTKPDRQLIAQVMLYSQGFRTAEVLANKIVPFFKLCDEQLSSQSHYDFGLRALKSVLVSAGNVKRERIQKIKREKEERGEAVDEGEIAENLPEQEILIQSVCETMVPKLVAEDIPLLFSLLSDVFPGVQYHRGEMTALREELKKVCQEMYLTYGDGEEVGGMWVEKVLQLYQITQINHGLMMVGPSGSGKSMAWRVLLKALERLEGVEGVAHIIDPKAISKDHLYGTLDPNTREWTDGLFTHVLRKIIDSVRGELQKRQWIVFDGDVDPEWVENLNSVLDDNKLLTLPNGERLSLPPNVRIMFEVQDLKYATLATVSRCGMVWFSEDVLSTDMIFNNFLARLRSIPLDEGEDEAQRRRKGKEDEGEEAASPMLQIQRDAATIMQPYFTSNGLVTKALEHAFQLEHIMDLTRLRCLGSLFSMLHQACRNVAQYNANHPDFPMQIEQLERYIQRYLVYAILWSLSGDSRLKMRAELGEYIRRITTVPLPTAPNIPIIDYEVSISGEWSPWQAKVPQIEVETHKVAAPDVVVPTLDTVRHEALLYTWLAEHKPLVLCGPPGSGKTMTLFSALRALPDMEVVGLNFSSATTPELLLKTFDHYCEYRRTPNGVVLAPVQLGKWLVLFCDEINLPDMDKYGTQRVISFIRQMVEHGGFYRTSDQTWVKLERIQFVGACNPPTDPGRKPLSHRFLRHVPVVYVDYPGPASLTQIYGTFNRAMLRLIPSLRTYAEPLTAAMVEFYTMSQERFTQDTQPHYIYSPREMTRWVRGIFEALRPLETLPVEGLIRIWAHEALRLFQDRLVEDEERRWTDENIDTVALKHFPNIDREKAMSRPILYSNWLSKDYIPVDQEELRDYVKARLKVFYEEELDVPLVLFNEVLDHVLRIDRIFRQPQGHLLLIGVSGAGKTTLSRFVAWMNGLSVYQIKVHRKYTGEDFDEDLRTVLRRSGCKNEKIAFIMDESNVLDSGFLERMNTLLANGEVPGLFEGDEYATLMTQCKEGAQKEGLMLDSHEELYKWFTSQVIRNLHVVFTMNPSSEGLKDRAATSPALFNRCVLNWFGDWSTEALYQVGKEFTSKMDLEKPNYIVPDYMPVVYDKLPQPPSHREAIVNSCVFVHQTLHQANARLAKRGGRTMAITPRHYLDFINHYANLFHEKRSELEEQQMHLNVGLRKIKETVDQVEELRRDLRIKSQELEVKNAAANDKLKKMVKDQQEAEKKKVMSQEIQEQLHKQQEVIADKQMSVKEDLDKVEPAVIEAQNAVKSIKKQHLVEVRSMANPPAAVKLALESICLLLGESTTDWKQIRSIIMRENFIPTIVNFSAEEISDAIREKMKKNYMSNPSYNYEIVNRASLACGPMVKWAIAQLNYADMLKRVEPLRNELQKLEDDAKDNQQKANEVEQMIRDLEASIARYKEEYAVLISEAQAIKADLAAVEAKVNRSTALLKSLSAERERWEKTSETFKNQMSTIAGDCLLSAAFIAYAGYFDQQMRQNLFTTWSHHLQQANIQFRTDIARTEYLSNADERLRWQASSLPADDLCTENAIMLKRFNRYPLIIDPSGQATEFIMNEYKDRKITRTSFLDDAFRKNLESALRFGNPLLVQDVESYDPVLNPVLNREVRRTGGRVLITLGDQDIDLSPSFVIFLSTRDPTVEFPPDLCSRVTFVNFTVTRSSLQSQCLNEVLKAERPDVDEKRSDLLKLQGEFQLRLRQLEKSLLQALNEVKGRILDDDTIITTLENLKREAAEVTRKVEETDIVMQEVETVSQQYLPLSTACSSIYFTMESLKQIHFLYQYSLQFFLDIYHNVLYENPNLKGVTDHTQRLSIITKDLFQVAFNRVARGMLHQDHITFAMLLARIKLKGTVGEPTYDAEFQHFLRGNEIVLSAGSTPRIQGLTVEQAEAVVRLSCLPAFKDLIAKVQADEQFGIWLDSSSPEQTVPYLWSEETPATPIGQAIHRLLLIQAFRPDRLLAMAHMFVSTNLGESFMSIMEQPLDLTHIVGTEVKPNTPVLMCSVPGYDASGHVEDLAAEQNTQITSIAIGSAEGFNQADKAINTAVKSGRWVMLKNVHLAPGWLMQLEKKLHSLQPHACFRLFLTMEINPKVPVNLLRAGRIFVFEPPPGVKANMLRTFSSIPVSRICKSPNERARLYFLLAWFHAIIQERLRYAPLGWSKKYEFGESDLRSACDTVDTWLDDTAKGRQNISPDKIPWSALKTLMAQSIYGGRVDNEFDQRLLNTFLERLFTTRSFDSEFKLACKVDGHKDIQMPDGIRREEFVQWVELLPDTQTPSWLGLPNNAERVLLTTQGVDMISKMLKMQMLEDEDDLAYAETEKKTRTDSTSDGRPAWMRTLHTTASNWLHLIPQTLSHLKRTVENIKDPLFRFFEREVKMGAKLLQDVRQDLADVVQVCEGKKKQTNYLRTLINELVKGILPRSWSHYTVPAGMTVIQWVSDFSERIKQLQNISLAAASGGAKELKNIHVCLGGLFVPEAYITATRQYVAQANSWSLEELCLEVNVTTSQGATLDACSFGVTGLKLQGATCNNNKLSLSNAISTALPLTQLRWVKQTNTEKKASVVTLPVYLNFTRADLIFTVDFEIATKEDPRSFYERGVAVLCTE
UniProt P63167, whole entry: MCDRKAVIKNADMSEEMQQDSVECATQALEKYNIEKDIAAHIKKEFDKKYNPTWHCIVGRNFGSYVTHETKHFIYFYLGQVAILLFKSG
UniProt Q13011: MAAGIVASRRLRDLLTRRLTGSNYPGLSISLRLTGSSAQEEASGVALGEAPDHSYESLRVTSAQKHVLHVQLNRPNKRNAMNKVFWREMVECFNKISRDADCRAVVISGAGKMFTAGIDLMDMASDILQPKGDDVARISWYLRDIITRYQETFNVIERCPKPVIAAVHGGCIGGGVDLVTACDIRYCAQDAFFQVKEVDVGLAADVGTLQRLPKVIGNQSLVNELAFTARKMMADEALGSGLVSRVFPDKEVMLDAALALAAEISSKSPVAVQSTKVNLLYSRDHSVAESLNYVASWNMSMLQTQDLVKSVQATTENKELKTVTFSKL
UniProt Q96G46: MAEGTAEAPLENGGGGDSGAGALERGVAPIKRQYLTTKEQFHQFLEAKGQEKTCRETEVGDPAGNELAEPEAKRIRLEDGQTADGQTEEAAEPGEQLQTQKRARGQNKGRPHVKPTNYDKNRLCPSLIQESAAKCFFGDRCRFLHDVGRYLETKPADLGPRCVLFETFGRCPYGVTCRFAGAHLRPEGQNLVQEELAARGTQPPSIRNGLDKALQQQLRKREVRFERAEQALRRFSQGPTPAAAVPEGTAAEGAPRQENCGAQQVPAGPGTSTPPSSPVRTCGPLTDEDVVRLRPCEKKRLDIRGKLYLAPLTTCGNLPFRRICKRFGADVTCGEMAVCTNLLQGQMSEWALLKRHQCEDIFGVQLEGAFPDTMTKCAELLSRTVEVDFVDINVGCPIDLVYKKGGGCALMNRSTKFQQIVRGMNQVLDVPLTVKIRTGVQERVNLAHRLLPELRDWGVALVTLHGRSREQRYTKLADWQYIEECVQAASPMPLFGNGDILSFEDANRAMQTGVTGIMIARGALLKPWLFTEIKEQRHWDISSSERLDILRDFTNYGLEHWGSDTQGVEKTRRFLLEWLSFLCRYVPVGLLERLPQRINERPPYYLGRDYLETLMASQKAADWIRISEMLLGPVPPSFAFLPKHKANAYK
UniProt P60981: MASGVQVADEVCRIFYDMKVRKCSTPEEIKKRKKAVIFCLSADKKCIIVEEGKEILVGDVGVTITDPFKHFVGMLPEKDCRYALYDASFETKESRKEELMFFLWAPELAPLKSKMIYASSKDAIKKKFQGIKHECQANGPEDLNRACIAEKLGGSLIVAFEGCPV
UniProt P23919: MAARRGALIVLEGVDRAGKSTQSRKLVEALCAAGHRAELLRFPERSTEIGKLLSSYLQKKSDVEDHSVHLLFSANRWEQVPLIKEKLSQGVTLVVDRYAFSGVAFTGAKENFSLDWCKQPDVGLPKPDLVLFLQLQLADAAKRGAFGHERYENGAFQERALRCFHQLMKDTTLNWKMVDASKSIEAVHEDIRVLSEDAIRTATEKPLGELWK
UniProt Q4G0W2: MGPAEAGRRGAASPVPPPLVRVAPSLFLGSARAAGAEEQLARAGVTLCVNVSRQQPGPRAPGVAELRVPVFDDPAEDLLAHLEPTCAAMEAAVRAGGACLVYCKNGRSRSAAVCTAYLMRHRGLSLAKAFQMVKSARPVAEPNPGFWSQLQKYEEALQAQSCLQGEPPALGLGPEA
UniProt Q8N5C7: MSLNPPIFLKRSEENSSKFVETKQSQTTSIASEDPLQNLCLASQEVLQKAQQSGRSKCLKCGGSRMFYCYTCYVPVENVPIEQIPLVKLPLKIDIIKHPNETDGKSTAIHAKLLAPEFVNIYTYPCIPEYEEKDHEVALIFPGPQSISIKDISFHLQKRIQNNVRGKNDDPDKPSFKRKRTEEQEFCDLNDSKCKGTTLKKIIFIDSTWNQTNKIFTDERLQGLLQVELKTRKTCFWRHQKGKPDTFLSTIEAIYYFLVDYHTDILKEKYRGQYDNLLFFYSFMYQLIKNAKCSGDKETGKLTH

Compound: Cc1cc(ccc1-c1ccccc1)C(=O)N1CCCN(CC1)C(=O)CCl [compound 10]
Test: probe-labelled cysteine peptide fold change vs DMSO (competition) (log2 fold change); higher = less target engagement (more negative = stronger competition)
Details: THP-1, incubation time: 4 h
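Further: competitive profiling in live THP-1 cells: cysteine peptides tagged with an iodoacetamide desthiobiotin (IA-DTB) probe, intensity after compound treatment relative to DMSO-treated cells.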

Row | Target | probe-labelled cysteine peptide fold change (10 µM) | probe-labelled cysteine peptide fold change (50 µM)
1 | DOCK2_Q92608_1655_QMSIISLASMNSDCSTPSKPTSESFDLELASPK (UniProt Q92608) | -0.303 | -0.0629
2 | DPP8_Q6V1X1_506_CPIKEEIAITSGEWEVLGR (UniProt Q6V1X1) | -0.17 | -0.313
3 | DUSP11_O75319_199_LIGVHCTHGLNR (UniProt O75319) | 0.081 | -0.107
4 | DYNC1H1_Q14204_2594_PLVLCGPPGSGK (UniProt Q14204) | 0.0638 | -0.00442
5 | DYNLL1_P63167_24_NADMSEEMQQDSVECATQALEK (UniProt P63167) | -0.166 | 0.0355
6 | DTX3L_Q8TDB6_159_AYITTLCPSIR (UniProt Q8TDB6) | -0.296 | -0.132
7 | ECH1_Q13011_159+171_CPKPVIAAVHGGCIGGGVDLVTACDIR (UniProt Q13011) | 0.0785 | -0.0937
8 | DTD1_Q8TEA8_84_QYEILCVSQFTLQCVLK (UniProt Q8TEA8) | 0.228 | 0.833
9 | DUS1L_Q6P1R4_395_CDQCGNPK (UniProt Q6P1R4) | 0.109 | -0.0653
10 | EARS2_Q5JPH6_140_TGAAYPCFCSPQR (UniProt Q5JPH6) | 0.0297 | -0.313
11 | EAF2_Q96CJ1_87+98_ECILIINHDTGECR (UniProt Q96CJ1) | 0.435 | 0.555
12 | DUS3L_Q96G46_171+177_CPYGVTCR (UniProt Q96G46) | -0.295 | -0.294
13 | DOK1_Q99704_308_IAPCPSQDSLYSDPLDSTSAQAGEGVQR (UniProt Q99704) | -0.253 | -0.0745
14 | DOT1L_Q8TEK3_750_QNTPQYLASPLDQEVVPCTPSHVGRPR (UniProt Q8TEK3) | -0.0799 | -0.134
15 | DNPEP_Q9ULA0_413_NDTPCGTTIGPILASR (UniProt Q9ULA0) | 0.0819 | 0.497
16 | DSTN_P60981_46_CIIVEEGK (UniProt P60981) | 0.0252 | 0.0986
17 | DPH7_Q9BTV6_33_HLLACGTYQLR (UniProt Q9BTV6) | 0.0319 | 0.078
18 | DPP9_Q86TI2_601_FWASMMEAASCPPDYVPPEIFHFHTR (UniProt Q86TI2) | 0.01 | 0.052
19 | DPYD_Q12882_671_KSEDSGADALELNLSCPHGMGER (UniProt Q12882) | 0.15 | -0.266

Row | Target | probe-labelled cysteine peptide fold change (10 µM) | probe-labelled cysteine peptide fold change (50 µM)
20 | DYNC1H1_Q14204_3573_WQASSLPADDLCTENAIMLK (UniProt Q14204) | -0.173 | 0.175
21 | DTYMK_P23919_117_ENFSLDWCK (UniProt P23919) | -0.175 | 0.0533
22 | DSTN_P60981_12_ASGVQVADEVCR (UniProt P60981) | 0.0942 | 0.212
23 | DYNC1I2_Q13409_484_AGISEMFEGHQGPITGIHCHAAVGAVDFSHLFVTSSFDWTVK (UniProt Q13409) | 0.311 | 0.575
24 | DOP1B_Q9Y3R5_1040_EACAVPEPQESGSEEHLPLSQFTTVDR (UniProt Q9Y3R5) | -0.00453 | -0.16
25 | DUSP28_Q4G0W2_86_VPVFDDPAEDLLAHLEPTCAAMEAAVR (UniProt Q4G0W2) | -0.0489 | 0.0262
26 | DUS3L_Q96G46_162_CVLFETFGR (UniProt Q96G46) | -0.023 | -0.146
27 | DOHH_Q9BU89_122_QYSSDPVIEVAETCQLAVR (UniProt Q9BU89) | 0.104 | -0.273
28 | DPYSL2_Q16555_439_THNSSLEYNIFEGMECR (UniProt Q16555) | 0.109 | 0.11
29 | DYNC1LI2_O43237_231_RGPLTSGSDEENVALPLGDNVLTHNLGIPVLVVCTK (UniProt O43237) | 0.661 | 0.157
30 | DYNC1H1_Q14204_4121_LHSLQPHACFR (UniProt Q14204) | -0.203 | -0.112
31 | DYNC1H1_Q14204_867_SLETCMYDHK (UniProt Q14204) | 0.0161 | 0.032
32 | ECD_O95905_211_AHCFLPAGIVAVLK (UniProt O95905) | -0.359 | 0.219
33 | DTWD1_Q8N5C7_126_LLAPEFVNIYTYPCIPEYEEK (UniProt Q8N5C7) | 0.162 | -0.0256
34 | DOCK10_Q96BY6_1310_TDNCEK (UniProt Q96BY6) | -0.105 | -0.108
35 | ECH1_Q13011_92_EMVECFNK (UniProt Q13011) | 0.215 | 0.062
36 | DNMT3A_Q9Y6K1_911_EYFACV (UniProt Q9Y6K1) | -0.244 | -0.0631
37 | DUS2_Q9NX74_475_AQELAQPGDLCK (UniProt Q9NX74) | -0.295 | -0.269
